Results reported in paper PMC6830812.
No constants are given. Whether binding was seen depends on the method and setting. For part of these data: Binding seen in cells or lysates may run through a third protein. Some binding calls cover weakened binding; strength is not graded here. For part of these data: Where a sequence is shown, tags or fusion partners need not be part of it.

The chains behind the UniProt entries cited, without tags or fusion partners. Residues count along the entry.
UniProt O82647: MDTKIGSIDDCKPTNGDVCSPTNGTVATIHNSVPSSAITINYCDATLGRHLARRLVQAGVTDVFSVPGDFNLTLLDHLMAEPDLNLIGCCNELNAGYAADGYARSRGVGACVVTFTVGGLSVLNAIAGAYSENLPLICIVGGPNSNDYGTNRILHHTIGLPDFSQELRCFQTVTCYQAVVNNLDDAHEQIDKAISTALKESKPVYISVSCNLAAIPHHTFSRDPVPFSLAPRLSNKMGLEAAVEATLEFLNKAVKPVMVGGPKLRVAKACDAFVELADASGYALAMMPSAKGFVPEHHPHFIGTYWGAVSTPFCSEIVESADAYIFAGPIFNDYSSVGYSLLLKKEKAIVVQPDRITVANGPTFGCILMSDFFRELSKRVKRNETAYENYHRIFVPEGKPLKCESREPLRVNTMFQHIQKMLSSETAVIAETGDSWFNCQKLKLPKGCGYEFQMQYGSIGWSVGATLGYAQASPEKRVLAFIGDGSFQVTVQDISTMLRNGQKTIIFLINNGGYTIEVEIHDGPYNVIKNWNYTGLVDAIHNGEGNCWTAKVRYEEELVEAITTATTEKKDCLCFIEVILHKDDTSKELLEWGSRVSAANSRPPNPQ
UniProt P07246, residues 25-375: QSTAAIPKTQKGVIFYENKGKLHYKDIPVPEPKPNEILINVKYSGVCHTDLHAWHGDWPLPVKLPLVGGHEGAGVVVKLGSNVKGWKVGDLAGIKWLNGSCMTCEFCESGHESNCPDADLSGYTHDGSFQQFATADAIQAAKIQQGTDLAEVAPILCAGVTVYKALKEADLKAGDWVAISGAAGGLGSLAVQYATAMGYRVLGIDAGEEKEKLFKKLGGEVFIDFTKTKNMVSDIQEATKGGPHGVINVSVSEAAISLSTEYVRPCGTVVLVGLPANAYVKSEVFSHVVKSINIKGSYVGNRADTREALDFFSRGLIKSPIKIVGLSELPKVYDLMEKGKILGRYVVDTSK
UniProt P38113: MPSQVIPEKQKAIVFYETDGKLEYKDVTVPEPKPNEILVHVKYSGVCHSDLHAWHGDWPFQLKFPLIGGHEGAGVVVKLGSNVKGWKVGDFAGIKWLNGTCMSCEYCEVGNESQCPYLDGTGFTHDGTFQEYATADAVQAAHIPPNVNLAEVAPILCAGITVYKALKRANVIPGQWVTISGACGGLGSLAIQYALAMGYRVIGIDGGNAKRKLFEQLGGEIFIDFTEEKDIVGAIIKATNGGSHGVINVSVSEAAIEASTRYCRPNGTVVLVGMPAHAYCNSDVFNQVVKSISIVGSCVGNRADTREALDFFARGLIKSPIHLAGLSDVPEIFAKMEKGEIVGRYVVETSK

Molecular target: T1, TBSV p33-cYFP (tomato bushy stunt virus (TBSV)) (UniProt P15962)
T1 sequence: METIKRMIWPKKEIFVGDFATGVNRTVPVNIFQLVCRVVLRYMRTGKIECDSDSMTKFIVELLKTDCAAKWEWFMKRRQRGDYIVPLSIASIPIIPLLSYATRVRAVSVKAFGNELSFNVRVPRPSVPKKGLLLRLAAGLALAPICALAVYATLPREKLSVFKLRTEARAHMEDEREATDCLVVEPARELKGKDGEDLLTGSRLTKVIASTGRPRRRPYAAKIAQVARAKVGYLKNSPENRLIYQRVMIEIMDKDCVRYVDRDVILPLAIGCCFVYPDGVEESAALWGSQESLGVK
Assay: split reporter; BiFC in N. benthamiana leaves; cYFP-tagged replication proteins and nYFP-tagged host proteins expressed via agroinfiltration; confocal microscopy with peroxisomal or mitochondrial markers

Molecule	binding
nYFP-AtPdc1 (from UniProt O82647 1-607) (enzyme)	binds

Molecular target: T2, TBSV p33-Flag replication protein (expressed in N. benthamiana) (tomato bushy stunt virus (TBSV)) (UniProt P15962)
T2 sequence: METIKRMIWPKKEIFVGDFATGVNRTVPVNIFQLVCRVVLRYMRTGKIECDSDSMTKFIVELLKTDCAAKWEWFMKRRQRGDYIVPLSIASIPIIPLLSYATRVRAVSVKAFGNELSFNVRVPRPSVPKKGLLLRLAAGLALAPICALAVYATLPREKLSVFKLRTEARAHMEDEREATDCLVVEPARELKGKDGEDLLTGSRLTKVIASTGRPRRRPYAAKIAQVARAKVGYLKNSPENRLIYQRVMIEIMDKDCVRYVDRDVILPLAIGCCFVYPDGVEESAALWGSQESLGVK
Assay: co-IP; co-purification from agroinfiltrated N. benthamiana leaves (2.5 days); PPEB buffer with 0.5% Triton X-100, 150 mM NaCl, pH 7.5; anti-FLAG M2 affinity agarose, 2 h at 4 C; detection with anti-HA antibody

Molecule	binding
HA-AtPdc1 (expressed in N. benthamiana) (from UniProt O82647 1-607) (enzyme)	binds

Molecular target: T1, TBSV p33-cYFP (tomato bushy stunt virus (TBSV))
Assay: split reporter; BiFC in N. benthamiana leaves; cYFP-tagged replication proteins and nYFP-tagged host proteins expressed via agroinfiltration; confocal microscopy with peroxisomal or mitochondrial markers
Remark: another data set of the same source

Molecule	binding
nYFP-AtAdh1 (enzyme, UniProt P06525 1-379) MSTTGQIIRCKAAVAWEAGKPLVIEEVEVAPPQKHEVRIKILFTSLCHTDVYFWEAKGQTPLFPRIFGHEAGGIVESVGEGVTDLQPGDHVLPIFTGECGECRHCHSEESNMCDLLRINTERGGMIHDGESRFSINGKPIYHFLGTSTFSEYTVVHSGQVAKINPDAPLDKVCIVSCGLSTGLGATLNVAKPKKGQSVAIFGLGAVGLGAAEGARIAGASRIIGVDFNSKRFDQAKEFGVTECVNPKDHDKPIQQVIAEMTDGGVDRSVECTGSVQAMIQAFECVHDGWGVAVLVGVPSKDDAFKTHPMNFLNERTLKGTFFGNYKPKTDIPGVVEKYMNKELELEKFITHTVPFSEINKAFDYMLKGESIRCIITMGA	binds

Molecular target: T3, TBSV Flag-p33 replication protein (tomato bushy stunt virus (TBSV)) (UniProt P15962)
T3 sequence: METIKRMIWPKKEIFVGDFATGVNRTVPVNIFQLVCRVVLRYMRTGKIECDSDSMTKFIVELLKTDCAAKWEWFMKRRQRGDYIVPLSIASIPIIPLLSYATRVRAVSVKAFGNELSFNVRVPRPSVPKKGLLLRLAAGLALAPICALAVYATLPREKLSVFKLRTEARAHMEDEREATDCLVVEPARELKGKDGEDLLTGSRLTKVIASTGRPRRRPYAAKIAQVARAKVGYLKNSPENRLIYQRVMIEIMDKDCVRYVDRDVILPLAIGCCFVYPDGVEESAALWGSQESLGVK
Assay: co-IP; Flag-affinity purification of the Flag-tagged replication proteins from the detergent-solubilized membrane fraction of yeast; samples cross-linked with formaldehyde in intact yeast cells; co-purified His6-tagged proteins detected with anti-His antibody; in Fig 2I samples taken 0, 1 h and 2.5 h after cycloheximide (100 ug/ml)

Molecule	binding
yeast His6-Adh3p (from UniProt P07246 25-375) (enzyme)	binds
Arabidopsis His6-AtPdc1 (expressed in yeast) (from UniProt O82647 1-607) (enzyme)	binds
yeast His6-Pdc1^S455F mutant (from UniProt P06169 1-563) (enzyme)	binds

Molecular target: T4, TBSV p33 replication protein (MYTH bait) (tomato bushy stunt virus (TBSV)) (UniProt P15962)
T4 sequence: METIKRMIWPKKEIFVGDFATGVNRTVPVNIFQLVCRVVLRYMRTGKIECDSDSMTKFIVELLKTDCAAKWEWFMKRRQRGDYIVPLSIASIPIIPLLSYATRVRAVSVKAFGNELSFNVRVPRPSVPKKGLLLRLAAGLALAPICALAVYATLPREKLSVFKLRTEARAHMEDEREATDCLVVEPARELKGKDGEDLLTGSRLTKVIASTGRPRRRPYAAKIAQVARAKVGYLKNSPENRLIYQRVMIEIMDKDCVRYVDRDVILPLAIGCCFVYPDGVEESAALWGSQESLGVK
Assay: two-hybrid; split ubiquitin-based membrane yeast two-hybrid (MYTH); bait p33 co-expressed with the prey proteins in yeast; empty prey vector (NubG) as negative control

Molecule	binding
Arabidopsis AtPdc1 (MYTH prey) (from UniProt O82647 1-607) (enzyme)	binds
yeast Adh3p alcohol dehydrogenase (MYTH prey) (from UniProt P07246 25-375) (enzyme)	binds
yeast Adh5p alcohol dehydrogenase (MYTH prey) (from UniProt P38113 1-351) (enzyme)	binds
yeast Pdc1p pyruvate decarboxylase (MYTH prey) (enzyme, UniProt P06169 1-563) MSEITLGKYLFERLKQVNVNTVFGLPGDFNLSLLDKIYEVEGMRWAGNANELNAAYAADGYARIKGMSCIITTFGVGELSALNGIAGSYAEHVGVLHVVGVPSISAQAKQLLLHHTLGNGDFTVFHRMSANISETTAMITDIATAPAEIDRCIRTTYVTQRPVYLGLPANLVDLNVPAKLLQTPIDMSLKPNDAESEKEVIDTILALVKDAKNPVILADACCSRHDVKAETKKLIDLTQFPAFVTPMGKGSIDEQHPRYGGVYVGTLSKPEVKEAVESADLILSVGALLSDFNTGSFSYSYKTKNIVEFHSDHMKIRNATFPGVQMKFVLQKLLTTIADAAKGYKPVAVPARTPANAAVPASTPLKQEWMWNQLGNFLQEGDVVIAETGTSAFGINQTTFPNNTYGISQVLWGSIGFTTGATLGAAFAAEEIDPKKRVILFIGDGSLQLTVQEISTMIRWGLKPYLFVLNNDGYTIEKLIHGPKAQYNEIQGWDHLSLLPTFGAKDYETHRVATTGEWDKLTQDKSFNDNSKIRMIEIMLPVFDAPQNLVEQAKLTAATNAKQ	binds
yeast Adh1p alcohol dehydrogenase (MYTH prey) (enzyme, UniProt P00330 1-348) MSIPETQKGVIFYESHGKLEYKDIPVPKPKANELLINVKYSGVCHTDLHAWHGDWPLPVKLPLVGGHEGAGVVVGMGENVKGWKIGDYAGIKWLNGSCMACEYCELGNESNCPHADLSGYTHDGSFQQYATADAVQAAHIPQGTDLAQVAPILCAGITVYKALKSANLMAGHWVAISGAAGGLGSLAVQYAKAMGYRVLGIDGGEGKEELFRSIGGEVFIDFTKEKDIVGAVLKATDGGAHGVINVSVSEAAIEASTRYVRANGTTVLVGMPAGAKCCSDVFNQVVKSISIVGSYVGNRADTREALDFFARGLVKSPIKVVGLSTLPEIYEKMEKGQIVGRYVVDTSK	binds
yeast Adh2p alcohol dehydrogenase (MYTH prey) (enzyme, UniProt P00331 1-348) MSIPETQKAIIFYESNGKLEHKDIPVPKPKPNELLINVKYSGVCHTDLHAWHGDWPLPTKLPLVGGHEGAGVVVGMGENVKGWKIGDYAGIKWLNGSCMACEYCELGNESNCPHADLSGYTHDGSFQEYATADAVQAAHIPQGTDLAEVAPILCAGITVYKALKSANLRAGHWAAISGAAGGLGSLAVQYAKAMGYRVLGIDGGPGKEELFTSLGGEVFIDFTKEKDIVSAVVKATNGGAHGIINVSVSEAAIEASTRYCRANGTVVLVGLPAGAKCSSDVFNHVVKSISIVGSYVGNRADTREALDFFARGLVKSPIKVVGLSSLPEIYEKMEKGQIAGRYVVDTSK	binds
yeast Adh4p alcohol dehydrogenase (MYTH prey) (enzyme, UniProt P10127 1-382) MSSVTGFYIPPISFFGEGALEETADYIKNKDYKKALIVTDPGIAAIGLSGRVQKMLEERDLNVAIYDKTQPNPNIANVTAGLKVLKEQNSEIVVSIGGGSAHDNAKAIALLATNGGEIGDYEGVNQSKKAALPLFAINTTAGTASEMTRFTIISNEEKKIKMAIIDNNVTPAVAVNDPSTMFGLPPALTAATGLDALTHCIEAYVSTASNPITDACALKGIDLINESLVAAYKDGKDKKARTDMCYAEYLAGMAFNNASLGYVHALAHQLGGFYHLPHGVCNAVLLPHVQEANMQCPKAKKRLGEIALHFGASQEDPEETIKALHVLNRTMNIPRNLKELGVKTEDFEILAEHAMHDACHLTNPVQFTKEQVVAIIKKAYEY	binds
Arabidopsis AtAdh1 (MYTH prey) (enzyme, UniProt P06525 1-379) MSTTGQIIRCKAAVAWEAGKPLVIEEVEVAPPQKHEVRIKILFTSLCHTDVYFWEAKGQTPLFPRIFGHEAGGIVESVGEGVTDLQPGDHVLPIFTGECGECRHCHSEESNMCDLLRINTERGGMIHDGESRFSINGKPIYHFLGTSTFSEYTVVHSGQVAKINPDAPLDKVCIVSCGLSTGLGATLNVAKPKKGQSVAIFGLGAVGLGAAEGARIAGASRIIGVDFNSKRFDQAKEFGVTECVNPKDHDKPIQQVIAEMTDGGVDRSVECTGSVQAMIQAFECVHDGWGVAVLVGVPSKDDAFKTHPMNFLNERTLKGTFFGNYKPKTDIPGVVEKYMNKELELEKFITHTVPFSEINKAFDYMLKGESIRCIITMGA	binds

Molecular target: T3, TBSV Flag-p33 replication protein (tomato bushy stunt virus (TBSV))
Assay: co-IP; Flag-affinity purification of the Flag-tagged replication proteins from the detergent-solubilized membrane fraction of yeast; samples cross-linked with formaldehyde in intact yeast cells; co-purified His6-tagged proteins detected with anti-His antibody; in Fig 2I samples taken 0, 1 h and 2.5 h after cycloheximide (100 ug/ml)
Remark: another data set of the same source

Molecule	binding
yeast His6-Adh1p (enzyme, UniProt P00330 1-348) MSIPETQKGVIFYESHGKLEYKDIPVPKPKANELLINVKYSGVCHTDLHAWHGDWPLPVKLPLVGGHEGAGVVVGMGENVKGWKIGDYAGIKWLNGSCMACEYCELGNESNCPHADLSGYTHDGSFQQYATADAVQAAHIPQGTDLAQVAPILCAGITVYKALKSANLMAGHWVAISGAAGGLGSLAVQYAKAMGYRVLGIDGGEGKEELFRSIGGEVFIDFTKEKDIVGAVLKATDGGAHGVINVSVSEAAIEASTRYVRANGTTVLVGMPAGAKCCSDVFNQVVKSISIVGSYVGNRADTREALDFFARGLVKSPIKVVGLSTLPEIYEKMEKGQIVGRYVVDTSK	binds
yeast His6-Adh2p (enzyme, UniProt P00331 1-348) MSIPETQKAIIFYESNGKLEHKDIPVPKPKPNELLINVKYSGVCHTDLHAWHGDWPLPTKLPLVGGHEGAGVVVGMGENVKGWKIGDYAGIKWLNGSCMACEYCELGNESNCPHADLSGYTHDGSFQEYATADAVQAAHIPQGTDLAEVAPILCAGITVYKALKSANLRAGHWAAISGAAGGLGSLAVQYAKAMGYRVLGIDGGPGKEELFTSLGGEVFIDFTKEKDIVSAVVKATNGGAHGIINVSVSEAAIEASTRYCRANGTVVLVGLPAGAKCSSDVFNHVVKSISIVGSYVGNRADTREALDFFARGLVKSPIKVVGLSSLPEIYEKMEKGQIAGRYVVDTSK	binds
His6-AtAdh1 (expressed in yeast) (enzyme, UniProt P06525 1-379) MSTTGQIIRCKAAVAWEAGKPLVIEEVEVAPPQKHEVRIKILFTSLCHTDVYFWEAKGQTPLFPRIFGHEAGGIVESVGEGVTDLQPGDHVLPIFTGECGECRHCHSEESNMCDLLRINTERGGMIHDGESRFSINGKPIYHFLGTSTFSEYTVVHSGQVAKINPDAPLDKVCIVSCGLSTGLGATLNVAKPKKGQSVAIFGLGAVGLGAAEGARIAGASRIIGVDFNSKRFDQAKEFGVTECVNPKDHDKPIQQVIAEMTDGGVDRSVECTGSVQAMIQAFECVHDGWGVAVLVGVPSKDDAFKTHPMNFLNERTLKGTFFGNYKPKTDIPGVVEKYMNKELELEKFITHTVPFSEINKAFDYMLKGESIRCIITMGA	binds
yeast His6-Pdc1p (enzyme, UniProt P06169 1-563) MSEITLGKYLFERLKQVNVNTVFGLPGDFNLSLLDKIYEVEGMRWAGNANELNAAYAADGYARIKGMSCIITTFGVGELSALNGIAGSYAEHVGVLHVVGVPSISAQAKQLLLHHTLGNGDFTVFHRMSANISETTAMITDIATAPAEIDRCIRTTYVTQRPVYLGLPANLVDLNVPAKLLQTPIDMSLKPNDAESEKEVIDTILALVKDAKNPVILADACCSRHDVKAETKKLIDLTQFPAFVTPMGKGSIDEQHPRYGGVYVGTLSKPEVKEAVESADLILSVGALLSDFNTGSFSYSYKTKNIVEFHSDHMKIRNATFPGVQMKFVLQKLLTTIADAAKGYKPVAVPARTPANAAVPASTPLKQEWMWNQLGNFLQEGDVVIAETGTSAFGINQTTFPNNTYGISQVLWGSIGFTTGATLGAAFAAEEIDPKKRVILFIGDGSLQLTVQEISTMIRWGLKPYLFVLNNDGYTIEKLIHGPKAQYNEIQGWDHLSLLPTFGAKDYETHRVATTGEWDKLTQDKSFNDNSKIRMIEIMLPVFDAPQNLVEQAKLTAATNAKQ	binds
